# Where a name gives a salt, the structure may show the parent alone. ± gives the standard deviation of the averaged measurements. This is one part of the list. The data scatter; read single values as rough.
# How the values were obtained:
# hAMSC donor 1 [1] = assay: Hoechst total cell count ratio vs vehicle control; higher = more cells (less toxicity)
# hAMSC donor 2 [2] = assay: as above
# hAMSC donor 1 [3] = assay: transgenic luciferase activity (RLU/mg protein) fold change vs vehicle control (ratio); higher = more transgene expression
# hAMSC donor 2 [4] = assay: as above
# hAMSC donor 1 [5] = assay: transfection efficiency (EGFP+ cells / Hoechst count) fold change vs vehicle control (ratio); hAMSC are human adipose-derived mesenchymal stem cells given an EGFP-luciferase plasmid by lipofection; higher = enhanced transfection
# hAMSC donor 2 [6] = assay: as above
# [7] = priming compound concentration 0.2 µM
# [8] = priming compound concentration 1.7 µM
# [9] = priming compound concentration 13 µM
Compound,Hoechst total cell count ratio (hAMSC donor 1 [1]; [7]),Hoechst total cell count ratio (hAMSC donor 1 [1]; [8]),Hoechst total cell count ratio (hAMSC donor 1 [1]; [9]),Hoechst total cell count ratio (hAMSC donor 2 [2]; [7]),Hoechst total cell count ratio (hAMSC donor 2 [2]; [8]),Hoechst total cell count ratio (hAMSC donor 2 [2]; [9]),transgenic luciferase activity (hAMSC donor 1 [3]; [8]),transgenic luciferase activity (hAMSC donor 1 [3]; [9]),transgenic luciferase activity (hAMSC donor 2 [4]; [7]),transgenic luciferase activity (hAMSC donor 2 [4]; [8]),transgenic luciferase activity (hAMSC donor 2 [4]; [9]),transfection efficiency (hAMSC donor 1 [5]; [7]),transfection efficiency (hAMSC donor 1 [5]; [8]),transfection efficiency (hAMSC donor 1 [5]; [9]),transfection efficiency (hAMSC donor 2 [6]; [7]),transfection efficiency (hAMSC donor 2 [6]; [8]),transfection efficiency (hAMSC donor 2 [6]; [9]),transgenic luciferase activity (hAMSC donor 1 [3]; [7])
Nc1nc(F)nc2c1ncn2[C@@H]1O[C@H](CO)[C@@H](O)[C@@H]1O [Fludarabine],1.55 ± 0.077,1.17 ± 0.17,1.46 ± 0.11,1.14 ± 0.09,1.13 ± 0.088,1.2 ± 0.25,0.836 ± 0.14,0.567 ± 0.22,0.853 ± 0.036,0.53 ± 0.17,0.656 ± 0.23,0.719 ± 0.051,1.13 ± 0.36,0.903 ± 0.27,0.895 ± 0.1,0.868 ± 0.063,0.942 ± 0.17,
CN(C)C(=O)C(CCN1CCC(O)(c2ccc(Cl)cc2)CC1)(c1ccccc1)c1ccccc1 [Loperamide hydrochloride],1.35 ± 0.33,1.15 ± 0.12,1.54 ± 0.13,1.1 ± 0.1,1.22 ± 0.011,1.49 ± 0.1,1.04 ± 0.37,0.287 ± 0.043,0.971 ± 0.13,0.728 ± 0.21,0.443 ± 0.013,1.13 ± 0.28,1.15 ± 0.29,0.496 ± 0.23,0.911 ± 0.15,0.979 ± 0.039,0.746 ± 0.021,
Clc1ccc2c(c1)C(N1CCNCC1)=Nc1ccccc1O2 [Amoxapine],0.998 ± 0.096,1.03 ± 0.11,1.24 ± 0.14,1.14 ± 0.044,1.26 ± 0.15,1.41 ± 0.13,1.14 ± 0.46,,,1.42 ± 0.27,0.458 ± 0.13,1.09 ± 0.23,1.15 ± 0.28,0.776 ± 0.18,1.19 ± 0.42,1.3 ± 0.22,0.855 ± 0.057,0.746 ± 0.12
Cn1cnc([N+](=O)[O-])c1Sc1ncnc2[nH]cnc12 [Azathioprine],1.11 ± 0.064,1.04 ± 0.028,0.995 ± 0.13,1.27 ± 0.24,1.12 ± 0.32,1.5 ± 0.44,0.445 ± 0.44,1.04 ± 0.45,,0.703 ± 0.032,0.586 ± 0.2,1.18 ± 0.28,1.55 ± 0.17,1.55 ± 0.28,0.954 ± 0.23,0.899 ± 0.13,1.18 ± 0.29,
CC(=O)S[C@@H]1CC2=CC(=O)CC[C@]2(C)[C@H]2CC[C@@]3(C)[C@@H](CC[C@@]34CCC(=O)O4)[C@H]12 [Spironolactone],1.09 ± 0.06,1.36 ± 0.23,1.38 ± 0.3,1.08 ± 0.18,0.792 ± 0.057,0.766 ± 0.023,0.55 ± 0.62,,,1.4 ± 0.43,0.668 ± 0.17,1.34 ± 0.1,0.885 ± 0.17,0.833 ± 0.2,1.05 ± 0.21,1.26 ± 0.25,0.869 ± 0.21,0.546 ± 0.13
CC1=C(CC(=O)O)c2cc(F)ccc2/C1=C\c1ccc([S+](C)[O-])cc1 (configuration not stated) [Sulindac],1.23 ± 0.068,1.44 ± 0.36,1.52 ± 0.31,1.17 ± 0.086,0.8 ± 0.38,1.4 ± 0.048,0.667 ± 0.24,,,0.787 ± 0.32,0.473 ± 0.041,1.37 ± 0.23,1.17 ± 0.11,0.903 ± 0.081,1 ± 0.078,1.8 ± 0.45,0.683 ± 0.02,0.977 ± 0.85
Cc1cccc(Nc2ccccc2C(=O)O)c1C [Mefenamic acid],1.35 ± 0.12,1.51 ± 0.19,1.14 ± 0.11,1.07 ± 0.15,0.602 ± 0.1,0.831 ± 0.13,,6.95 ± 3.4,0.798 ± 0.32,0.518 ± 0.27,,1.26 ± 0.12,1.11 ± 0.15,1.2 ± 0.23,0.906 ± 0.14,1.85 ± 0.22,1.33 ± 0.25,0.5 ± 0.096
OC(c1cc(C(F)(F)F)nc2c(C(F)(F)F)cccc12)C1CCCCN1 (configuration not stated) [Mefloquine hydrochloride],1.18 ± 0.084,1.6 ± 0.19,1.35 ± 0.12,1.06 ± 0.053,0.821 ± 0.11,0.554 ± 0.14,0.842 ± 0.23,,,0.345 ± 0.077,0.339 ± 0.13,1.05 ± 0.17,1.05 ± 0.057,0.609 ± 0.076,0.805 ± 0.11,1.51 ± 0.088,1.4 ± 0.25,0.668 ± 0.19
CC(=O)OCC(=O)[C@@]1(O)CC[C@H]2[C@@H]3CCC4=CC(=O)CC[C@]4(C)[C@H]3C(=O)C[C@@]21C [Cortisone acetate],1.35 ± 0.093,1.59 ± 0.27,1.14 ± 0.22,1.19 ± 0.058,0.959 ± 0.043,0.791 ± 0.13,0.778 ± 0.098,,,0.492 ± 0.08,0.389 ± 0.12,0.959 ± 0.28,1.19 ± 0.045,0.958 ± 0.19,0.833 ± 0.12,1.44 ± 0.23,1.37 ± 0.088,0.783 ± 0.54
CCN(CC)CCOC(=O)C1(C2CCCCC2)CCCCC1 [Dicyclomine hydrochloride],1.24 ± 0.23,1.42 ± 0.12,1.21 ± 0.18,1.17 ± 0.15,0.849 ± 0.1,1.21 ± 0.18,,5.75 ± 1.6,0.693 ± 0.15,0.499 ± 0.14,,1.45 ± 0.42,0.985 ± 0.15,1.08 ± 0.23,0.861 ± 0.017,1.33 ± 0.22,0.984 ± 0.17,0.653 ± 0.36
CCCNC(C)C(=O)Nc1ccccc1C (configuration not stated) [Prilocaine hydrochloride],1.23 ± 0.11,0.972 ± 0.072,1.03 ± 0.087,0.799 ± 0.16,0.818 ± 0.067,0.994 ± 0.031,0.671 ± 0.57,0.865 ± 0.25,,0.744 ± 0.11,0.808 ± 0.42,1.11 ± 0.26,1.42 ± 0.44,0.932 ± 0.23,1.52 ± 0.32,1.28 ± 0.18,1.43 ± 0.15,
OC(Cn1cncn1)(Cn1cncn1)c1ccc(F)cc1F [Fluconazole],1.11 ± 0.1,1.4 ± 0.2,1.36 ± 0.21,1.1 ± 0.26,1.01 ± 0.21,0.828 ± 0.15,0.62 ± 0.12,,,0.683 ± 0.067,0.97 ± 0.26,1.04 ± 0.046,0.985 ± 0.18,1.09 ± 0.21,1.01 ± 0.19,1.25 ± 0.3,1.16 ± 0.23,0.59 ± 0.19
CC(=O)O[C@]1(C(C)=O)CC[C@H]2[C@@H]3C[C@H](C)C4=CC(=O)CC[C@]4(C)[C@H]3CC[C@@]21C [Medroxyprogesterone 17-acetate],0.95 ± 0.19,1.1 ± 0.18,1.07 ± 0.16,1.13 ± 0.4,1.57 ± 0.094,1.77 ± 0.078,1.05 ± 0.33,1.31 ± 0.17,,1.27 ± 0.2,0.77 ± 0.17,1.73 ± 0.4,0.846 ± 0.23,1.99 ± 0.78,1.39 ± 0.23,1.65 ± 0.091,1.37 ± 0.21,
O=C1CCC(N2C(=O)c3ccccc3C2=O)C(=O)N1 (configuration not stated) [Thalidomide],1.46 ± 0.097,1.32 ± 0.15,1.21 ± 0.18,1.07 ± 0.11,0.919 ± 0.1,1.04 ± 0.34,,3.46 ± 5.2,0.828 ± 0.14,0.612 ± 0.17,,1.08 ± 0.072,1.1 ± 0.13,0.925 ± 0.21,1.28 ± 0.28,1.3 ± 0.065,1.34 ± 0.45,0.872 ± 0.47
CCN(CC)CCNC(=O)c1cc(Cl)c(N)cc1OC [Metoclopramide hydrochloride],1.37 ± 0.15,1.41 ± 0.1,1.29 ± 0.031,1.2 ± 0.21,0.875 ± 0.061,0.866 ± 0.17,,7.01 ± 1.7,0.836 ± 0.17,0.418 ± 0.014,,1.19 ± 0.46,1.01 ± 0.18,1.31 ± 0.03,0.912 ± 0.15,1.43 ± 0.13,1.24 ± 0.12,0.582 ± 0.15

# A draw from above in order of SMILES length, falling.
Compound,Hoechst total cell count ratio (hAMSC donor 1 [1]; [7]),Hoechst total cell count ratio (hAMSC donor 1 [1]; [8]),Hoechst total cell count ratio (hAMSC donor 1 [1]; [9]),Hoechst total cell count ratio (hAMSC donor 2 [2]; [7]),Hoechst total cell count ratio (hAMSC donor 2 [2]; [8]),Hoechst total cell count ratio (hAMSC donor 2 [2]; [9]),transgenic luciferase activity (hAMSC donor 1 [3]; [8]),transgenic luciferase activity (hAMSC donor 1 [3]; [9]),transgenic luciferase activity (hAMSC donor 2 [4]; [7]),transgenic luciferase activity (hAMSC donor 2 [4]; [8]),transgenic luciferase activity (hAMSC donor 2 [4]; [9]),transfection efficiency (hAMSC donor 1 [5]; [7]),transfection efficiency (hAMSC donor 1 [5]; [8]),transfection efficiency (hAMSC donor 1 [5]; [9]),transfection efficiency (hAMSC donor 2 [6]; [7]),transfection efficiency (hAMSC donor 2 [6]; [8]),transfection efficiency (hAMSC donor 2 [6]; [9]),transgenic luciferase activity (hAMSC donor 1 [3]; [7])
OC(c1cc(C(F)(F)F)nc2c(C(F)(F)F)cccc12)C1CCCCN1 (configuration not stated) [Mefloquine hydrochloride],1.18 ± 0.084,1.6 ± 0.19,1.35 ± 0.12,1.06 ± 0.053,0.821 ± 0.11,0.554 ± 0.14,0.842 ± 0.23,,,0.345 ± 0.077,0.339 ± 0.13,1.05 ± 0.17,1.05 ± 0.057,0.609 ± 0.076,0.805 ± 0.11,1.51 ± 0.088,1.4 ± 0.25,0.668 ± 0.19
O=C1CCC(N2C(=O)c3ccccc3C2=O)C(=O)N1 (configuration not stated) [Thalidomide],1.46 ± 0.097,1.32 ± 0.15,1.21 ± 0.18,1.07 ± 0.11,0.919 ± 0.1,1.04 ± 0.34,,3.46 ± 5.2,0.828 ± 0.14,0.612 ± 0.17,,1.08 ± 0.072,1.1 ± 0.13,0.925 ± 0.21,1.28 ± 0.28,1.3 ± 0.065,1.34 ± 0.45,0.872 ± 0.47
CCCNC(C)C(=O)Nc1ccccc1C (configuration not stated) [Prilocaine hydrochloride],1.23 ± 0.11,0.972 ± 0.072,1.03 ± 0.087,0.799 ± 0.16,0.818 ± 0.067,0.994 ± 0.031,0.671 ± 0.57,0.865 ± 0.25,,0.744 ± 0.11,0.808 ± 0.42,1.11 ± 0.26,1.42 ± 0.44,0.932 ± 0.23,1.52 ± 0.32,1.28 ± 0.18,1.43 ± 0.15,

# From the supplement of paper PMC7238544
